According to publication PMC6393987:
These are yes or no findings as the source states them, for the method shown. Some results given as binding are weak or reduced against the parent protein; the word gives no strength. Sequences can lack the tags named with a protein.

Columns and labels:
[1] = biological target: NLP7 (116–959) containing mutations in the PB1 domain (K867, D909, D911 and E913 replaced with alanine), carboxy-terminal GBD fusion (Arabidopsis) (UniProt Q84TH9); assay: two-hybrid; Y2H assay in yeast; PB1 domain of NLP7 (853–949) fused to AD as prey, NLP7 forms fused to carboxy-terminal GBD as bait
[2] = biological target: NLP7 lacking the amino terminus (amino acids 116–959), carboxy-terminal Gal4 DNA-binding domain fusion (Arabidopsis) (UniProt Q84TH9); assay: as above
[3] = biological target: PB1 domain of NLP6 (GBD and AD fusion constructs of Fig. 1c) (Arabidopsis) (UniProt Q8RWY4); assay: two-hybrid; Y2H between PB1 domains as GBD (pGBT9) and AD (pGADT7) fusions; growth assay in S. cerevisiae AH109 on SD lacking Trp, Leu, His, Ade and colony-lift β-galactosidase assay in Y187
[4] = biological target: T1, PB1 domain of NLP7 (GBD and AD fusion constructs of Fig. 1c) (Arabidopsis) (UniProt Q84TH9); assay: as above
T1 sequence: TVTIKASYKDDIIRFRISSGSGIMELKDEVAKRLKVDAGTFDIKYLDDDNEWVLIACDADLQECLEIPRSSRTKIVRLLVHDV

B1: PB1 domain of NLP7 (residues 853–949), Gal4 transactivation domain fusion (prey) (domain or fragment, UniProt Q84TH9 853-949)
chain: ACEPSGSEMRTVTIKASYKDDIIRFRISSGSGIMELKDEVAKRLKVDAGTFDIKYLDDDNEWVLIACDADLQECLEIPRSSRTKIVRLLVHDVTTNL
For B1, the binding [1] was “no binding” and the binding [2] was “binds”.

B2: PB1 domain of NLP6 (GBD and AD fusion constructs of Fig. 1c) (domain or fragment, UniProt Q8RWY4 741-823)
chain: LVSIKATYREDIIRFKISPESVSITELKQQVAKRLKLETAAFELKYLDDDREWVSVSCDADLSECLDTSAAKANTLRLSVHDV
B2 was tested, and the binding [3] was “no binding” and the binding [4] was “no binding”.
